Reference: the supplement of paper PMC6658780
Structures can show the parent of a compound that is named as a salt. ± gives the standard deviation of the averaged measurements. The list shows a part of the results. Repeats in this data set agree poorly, so a single value says little.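 The A. baumannii clinical isolates were selected for resistance to the partner antibiotic; the screen seeks drugs that restore its effect. Background from coloured compounds is removed by subtracting the start-of-incubation reading.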

test system: Acinetobacter baumannii WP-487; test: percent growth inhibition of drug alone vs DMSO control; higher = more growth inhibition; details: antibiotic (0.125x MIC): none (0.1% DMSO); 7 µM
Method: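 Prestwick drugs tested at 20 uM and 7 uM with an antibiotic at 0.125x MIC (16 mg/L when MIC >128 mg/L) in cation-adjusted Mueller-Hinton broth, 384-well plates, duplicate runs on different days. Percent growth inhibition was computed from OD600 (24 h minus 0 h) relative to DMSO-only wells. Drug + 0.1% DMSO (no antibiotic) wells are also given. Only hits (max corrected inhibition > mean + 3SD) are listed. A. baumannii: NCTC-13301 was used for MEM/CIP/GEN/TGC and WP-487 for colistin. Duplicates with colistin are strongly discordant (run 2 near 100% for most drugs).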

Row | Compound | percent growth inhibition of drug alone [%]
1 | CC(=O)N1CCN(c2ccc(OCC3COC(Cn4ccnc4)(c4ccc(Cl)cc4Cl)O3)cc2)CC1 (stereo not given) [Ketoconazole] | 1.59 ± 0.8
2 | CCCCCCCCCCCCCCCC[N+](C)(C)CCN(Cc1ccc(OC)cc1)c1ncccn1 [Thonzonium bromide] | 0.00908 ± 8.3
3 | Nc1ccc(S(=O)(=O)c2ccc(N)cc2)cc1 [Dapsone] | 11.8 ± 6.2
4 | CSc1nc2cc(Cl)c(Oc3cccc(Cl)c3Cl)cc2[nH]1 [Triclabendazole] | 4.64 ± 3.5
5 | CN(C)CCOc1ccc(/C(=C(/CCCl)c2ccccc2)c2ccccc2)cc1 [Toremifene] | -2.77 ± 14
6 | O=c1[nH]cnc2c1ncn2[C@H]1CC[C@@H](CO)O1 [Didanosine] | 0.136 ± 5
7 | C=C1/C(=C\C=C2/CCC[C@]3(C)[C@@H]([C@H](C)/C=C/[C@@H](O)C4CC4)CC[C@@H]23)C[C@@H](O)C[C@@H]1O [Calcipotriene] | -3.83 ± 9.9
8 | CN(C)CCCN1c2ccccc2Sc2ccc(Cl)cc21 [Chlorpromazine hydrochloride] | -3.02 ± 14
9 | Cc1cc(C(C)(C)CC(C)(C)C)ccc1OCCOCC[N+](C)(C)Cc1ccccc1 [Methyl benzethonium chloride] | -0.853 ± 4.1
10 | CN(C(=O)CN(CCO)CC(=O)N(C)C(C)(C)Cc1ccccc1)C(C)(C)Cc1ccccc1 [Oxethazaine] | -0.85 ± 1.5
11 | COc1cnc(NS(=O)(=O)c2ccc(N)cc2)nc1 [Sulfameter] | 9.61 ± 6.5
12 | O=C1CN(/N=C/c2ccc([N+](=O)[O-])o2)C(=O)N1 [Nitrofurantoin] | -0.502 ± 7.5
13 | O=C1NCCN1c1ncc([N+](=O)[O-])s1 [Niridazole] | -3.2 ± 7.5
14 | C=CCOC(Cn1ccnc1)c1ccc(Cl)cc1Cl (stereo not given) [Enilconazole] | 2.58 ± 3.5
15 | CC(NCCC(c1ccccc1)c1ccccc1)c1ccccc1 (stereo not given) [Fendiline hydrochloride] | 1.4 ± 6.5
16 | CCCCCCCCNC(C)C(O)c1ccc(SC(C)C)cc1 (stereo not given) [Suloctidil] | 4.24 ± 1.4
17 | CN1CCN(CCCN2c3ccccc3Sc3ccc(Cl)cc32)CC1 [Prochlorperazine dimaleate] | 1.58 ± 3.5
18 | NC[C@H]1O[C@H](O[C@H]2[C@H](O)[C@@H](O[C@H]3O[C@H](CO)[C@@H](O)[C@H](N)[C@H]3O)[C@H](N)C[C@@H]2N)[C@H](N)C[C@@H]1O [Tobramycin] | 56.6 ± 61
19 | Cc1cc(N)c2ccccc2[n+]1CCCCCCCCCC[n+]1c(C)cc(N)c2ccccc21 [Dequalinium dichloride] | 6.17 ± 2.7
20 | CCC(C)(C)c1ccc(CC(C)CN2C[C@@H](C)O[C@@H](C)C2)cc1 (stereo not given in full) [Amorolfine hydrochloride] | 3.36 ± 2.9

same assay, conditions: antibiotic (0.125x MIC): none (0.1% DMSO); 20 µM

Row | Compound | percent growth inhibition of drug alone [%]
21 | CC(=O)N1CCN(c2ccc(OCC3COC(Cn4ccnc4)(c4ccc(Cl)cc4Cl)O3)cc2)CC1 (stereo not given) [Ketoconazole] | -1.95 ± 1.8
22 | CCCCCCCCCCCCCCCC[N+](C)(C)CCN(Cc1ccc(OC)cc1)c1ncccn1 [Thonzonium bromide] | 81.6 ± 6.1
23 | Nc1ccc(S(=O)(=O)c2ccc(N)cc2)cc1 [Dapsone] | 51.7 ± 60
24 | CSc1nc2cc(Cl)c(Oc3cccc(Cl)c3Cl)cc2[nH]1 [Triclabendazole] | 13.6 ± 14
25 | CN(C)CCOc1ccc(/C(=C(/CCCl)c2ccccc2)c2ccccc2)cc1 [Toremifene] | 0.685 ± 0.48
26 | O=c1[nH]cnc2c1ncn2[C@H]1CC[C@@H](CO)O1 [Didanosine] | -1.96 ± 2.9
27 | C=C1/C(=C\C=C2/CCC[C@]3(C)[C@@H]([C@H](C)/C=C/[C@@H](O)C4CC4)CC[C@@H]23)C[C@@H](O)C[C@@H]1O [Calcipotriene] | -1.44 ± 1.2
28 | CN(C)CCCN1c2ccccc2Sc2ccc(Cl)cc21 [Chlorpromazine hydrochloride] | -3.88 ± 4
29 | Cc1cc(C(C)(C)CC(C)(C)C)ccc1OCCOCC[N+](C)(C)Cc1ccccc1 [Methyl benzethonium chloride] | 48.9 ± 59
30 | CN(C(=O)CN(CCO)CC(=O)N(C)C(C)(C)Cc1ccccc1)C(C)(C)Cc1ccccc1 [Oxethazaine] | 35.5 ± 52
31 | COc1cnc(NS(=O)(=O)c2ccc(N)cc2)nc1 [Sulfameter] | 53.1 ± 59
32 | O=C1CN(/N=C/c2ccc([N+](=O)[O-])o2)C(=O)N1 [Nitrofurantoin] | -2.63 ± 2.2
33 | O=C1NCCN1c1ncc([N+](=O)[O-])s1 [Niridazole] | -0.525 ± 2.6
34 | C=CCOC(Cn1ccnc1)c1ccc(Cl)cc1Cl (stereo not given) [Enilconazole] | 6.83 ± 14
35 | CC(NCCC(c1ccccc1)c1ccccc1)c1ccccc1 (stereo not given) [Fendiline hydrochloride] | 0.842 ± 2.8
36 | CCCCCCCCNC(C)C(O)c1ccc(SC(C)C)cc1 (stereo not given) [Suloctidil] | 7.32 ± 11
37 | CN1CCN(CCCN2c3ccccc3Sc3ccc(Cl)cc32)CC1 [Prochlorperazine dimaleate] | -2.73 ± 1.3
38 | NC[C@H]1O[C@H](O[C@H]2[C@H](O)[C@@H](O[C@H]3O[C@H](CO)[C@@H](O)[C@H](N)[C@H]3O)[C@H](N)C[C@@H]2N)[C@H](N)C[C@@H]1O [Tobramycin] | 100.4 ± 0.62
39 | Cc1cc(N)c2ccccc2[n+]1CCCCCCCCCC[n+]1c(C)cc(N)c2ccccc21 [Dequalinium dichloride] | 7.14 ± 12
40 | CCC(C)(C)c1ccc(CC(C)CN2C[C@@H](C)O[C@@H](C)C2)cc1 (stereo not given in full) [Amorolfine hydrochloride] | 9.37 ± 12
